These are yes or no findings as the source states them, for the method shown. In cells and extracts the contact can be indirect. Some binding calls cover weakened binding; strength is not graded here. For some of these results: Sequences can lack the tags named with a protein.
Legend:
[1] = target: T1, 3xFLAG tagged WT Gea2 (S. cerevisiae) (UniProt P39993); experiment: co-IP; Gea2-3xFLAG and Arl1-3xHA co-expressed in gea2∆arl1∆ yeast; lysate (20 mM HEPES pH 7.2, 100 mM KCl, 5 mM MgCl2, 1% Triton X-100, 5 mM EDTA, 10% glycerol) on anti-FLAG M2 magnetic beads overnight at 4 °C; anti-HA blot
T1 sequence: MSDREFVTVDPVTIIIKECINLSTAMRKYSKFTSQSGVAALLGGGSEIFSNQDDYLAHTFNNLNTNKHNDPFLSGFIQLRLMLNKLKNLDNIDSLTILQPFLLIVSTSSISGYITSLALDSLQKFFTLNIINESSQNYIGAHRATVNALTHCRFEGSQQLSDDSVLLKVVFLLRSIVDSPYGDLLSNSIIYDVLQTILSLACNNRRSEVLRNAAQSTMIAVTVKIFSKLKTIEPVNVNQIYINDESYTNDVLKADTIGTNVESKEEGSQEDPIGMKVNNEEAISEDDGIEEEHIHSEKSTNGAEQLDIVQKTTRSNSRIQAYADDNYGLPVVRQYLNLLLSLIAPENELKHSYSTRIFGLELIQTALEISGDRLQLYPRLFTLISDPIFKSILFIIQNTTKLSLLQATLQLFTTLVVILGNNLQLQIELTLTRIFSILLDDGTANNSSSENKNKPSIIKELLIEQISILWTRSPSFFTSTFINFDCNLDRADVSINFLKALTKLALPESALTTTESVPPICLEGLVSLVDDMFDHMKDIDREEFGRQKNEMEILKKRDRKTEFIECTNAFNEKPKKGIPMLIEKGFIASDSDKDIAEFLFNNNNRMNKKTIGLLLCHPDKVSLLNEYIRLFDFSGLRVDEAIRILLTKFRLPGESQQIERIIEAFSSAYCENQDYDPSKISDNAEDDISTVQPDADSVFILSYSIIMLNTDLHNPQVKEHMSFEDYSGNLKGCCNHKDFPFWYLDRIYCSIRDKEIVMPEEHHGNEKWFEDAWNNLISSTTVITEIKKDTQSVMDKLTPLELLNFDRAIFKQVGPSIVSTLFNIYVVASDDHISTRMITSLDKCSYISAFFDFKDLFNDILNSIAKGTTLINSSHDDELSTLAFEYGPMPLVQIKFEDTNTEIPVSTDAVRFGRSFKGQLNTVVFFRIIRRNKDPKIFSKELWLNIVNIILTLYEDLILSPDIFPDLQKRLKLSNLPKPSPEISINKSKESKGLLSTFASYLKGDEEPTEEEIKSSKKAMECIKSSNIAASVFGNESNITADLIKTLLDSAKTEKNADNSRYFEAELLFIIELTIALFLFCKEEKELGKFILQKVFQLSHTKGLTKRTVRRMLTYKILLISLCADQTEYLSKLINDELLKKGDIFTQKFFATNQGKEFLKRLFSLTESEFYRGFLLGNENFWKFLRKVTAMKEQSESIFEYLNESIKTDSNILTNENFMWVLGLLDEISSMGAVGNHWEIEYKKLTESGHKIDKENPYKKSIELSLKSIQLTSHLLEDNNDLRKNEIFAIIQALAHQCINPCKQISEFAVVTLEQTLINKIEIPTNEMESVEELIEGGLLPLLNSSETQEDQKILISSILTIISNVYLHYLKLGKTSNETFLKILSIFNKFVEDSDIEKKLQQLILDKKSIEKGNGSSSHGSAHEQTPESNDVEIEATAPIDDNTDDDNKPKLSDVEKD

[2] = target: Gea2 L167A, F171A double mutant (S. cerevisiae) (UniProt P39993); experiment: co-IP; dimerisation of Gea2 variants from yeast (Supplementary Fig. 12); tags and details not shown
[3] = target: T2, 3xFLAG tagged WT Gea2 (S. cerevisiae), P39993; experiment: co-IP; Gea2-3xFLAG and Arl1-3xHA co-expressed in gea2∆arl1∆ yeast; lysate (20 mM HEPES pH 7.2, 100 mM KCl, 5 mM MgCl2, 1% Triton X-100, 5 mM EDTA, 10% glycerol) on anti-FLAG M2 magnetic beads overnight at 4 °C; anti-HA blot; conditions: remark: other sources report otherwise
T2 chain: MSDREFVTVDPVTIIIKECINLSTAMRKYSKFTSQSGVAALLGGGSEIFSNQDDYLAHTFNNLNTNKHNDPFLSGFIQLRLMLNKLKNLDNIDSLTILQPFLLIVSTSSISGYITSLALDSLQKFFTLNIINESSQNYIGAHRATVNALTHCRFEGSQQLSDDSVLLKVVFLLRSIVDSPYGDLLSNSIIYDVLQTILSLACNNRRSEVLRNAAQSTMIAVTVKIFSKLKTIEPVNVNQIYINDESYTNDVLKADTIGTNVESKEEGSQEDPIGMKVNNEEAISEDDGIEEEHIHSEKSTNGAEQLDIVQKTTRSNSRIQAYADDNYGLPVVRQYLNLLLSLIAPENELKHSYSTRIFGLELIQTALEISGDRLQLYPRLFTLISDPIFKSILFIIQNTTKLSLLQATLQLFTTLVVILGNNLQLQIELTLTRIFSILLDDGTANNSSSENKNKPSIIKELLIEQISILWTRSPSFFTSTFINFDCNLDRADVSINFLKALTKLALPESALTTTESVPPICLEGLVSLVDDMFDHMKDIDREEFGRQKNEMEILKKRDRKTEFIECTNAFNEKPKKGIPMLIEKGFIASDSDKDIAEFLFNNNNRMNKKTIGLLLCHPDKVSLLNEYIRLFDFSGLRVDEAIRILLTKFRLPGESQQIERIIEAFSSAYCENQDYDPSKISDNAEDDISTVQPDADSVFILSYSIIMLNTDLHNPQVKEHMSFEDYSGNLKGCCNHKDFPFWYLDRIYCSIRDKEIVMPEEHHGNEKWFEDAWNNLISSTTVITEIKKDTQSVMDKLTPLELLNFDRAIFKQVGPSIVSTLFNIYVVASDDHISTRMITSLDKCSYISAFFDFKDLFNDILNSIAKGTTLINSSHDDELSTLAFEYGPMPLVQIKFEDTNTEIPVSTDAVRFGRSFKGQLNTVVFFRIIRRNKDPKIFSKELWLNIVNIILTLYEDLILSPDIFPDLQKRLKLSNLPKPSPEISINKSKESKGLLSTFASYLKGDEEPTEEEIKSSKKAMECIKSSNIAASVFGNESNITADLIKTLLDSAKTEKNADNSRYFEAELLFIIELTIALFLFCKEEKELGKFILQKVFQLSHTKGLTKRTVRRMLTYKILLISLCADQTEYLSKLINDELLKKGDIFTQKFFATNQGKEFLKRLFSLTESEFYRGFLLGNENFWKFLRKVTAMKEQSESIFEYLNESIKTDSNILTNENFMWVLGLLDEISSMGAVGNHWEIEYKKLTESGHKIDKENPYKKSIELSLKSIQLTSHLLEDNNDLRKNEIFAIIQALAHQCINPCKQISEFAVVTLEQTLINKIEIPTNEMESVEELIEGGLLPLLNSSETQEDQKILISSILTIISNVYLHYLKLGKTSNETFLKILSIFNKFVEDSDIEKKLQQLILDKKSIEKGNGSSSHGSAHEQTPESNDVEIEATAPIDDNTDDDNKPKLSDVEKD

B1: 3xHA tagged Arl1 Y78L (protein, UniProt P38116 1-183)
chain: MGNIFSSMFDKLWGSNKELRILILGLDGAGKTTILYRLQIGEVVTTKPTIGFNVETLSYKNLKLNVWDLGGQTSIRPLWRCYYADTAAVIFVVDSTDKDRMSTASKELHLMLQEEELQDAALLVFANKQDQPGALSASEVSKELNLVELKDRSWSIVASSAIKGEGITEGLDWLIDVIKEEQL
Question: With B1 as the binder, how does the binding [1] read?
Answer: binds

B2: Gea2 L167A, F171A double mutant (protein, UniProt P39993 1-1459)
chain: MSDREFVTVDPVTIIIKECINLSTAMRKYSKFTSQSGVAALLGGGSEIFSNQDDYLAHTFNNLNTNKHNDPFLSGFIQLRLMLNKLKNLDNIDSLTILQPFLLIVSTSSISGYITSLALDSLQKFFTLNIINESSQNYIGAHRATVNALTHCRFEGSQQLSDDSVLAKVVALLRSIVDSPYGDLLSNSIIYDVLQTILSLACNNRRSEVLRNAAQSTMIAVTVKIFSKLKTIEPVNVNQIYINDESYTNDVLKADTIGTNVESKEEGSQEDPIGMKVNNEEAISEDDGIEEEHIHSEKSTNGAEQLDIVQKTTRSNSRIQAYADDNYGLPVVRQYLNLLLSLIAPENELKHSYSTRIFGLELIQTALEISGDRLQLYPRLFTLISDPIFKSILFIIQNTTKLSLLQATLQLFTTLVVILGNNLQLQIELTLTRIFSILLDDGTANNSSSENKNKPSIIKELLIEQISILWTRSPSFFTSTFINFDCNLDRADVSINFLKALTKLALPESALTTTESVPPICLEGLVSLVDDMFDHMKDIDREEFGRQKNEMEILKKRDRKTEFIECTNAFNEKPKKGIPMLIEKGFIASDSDKDIAEFLFNNNNRMNKKTIGLLLCHPDKVSLLNEYIRLFDFSGLRVDEAIRILLTKFRLPGESQQIERIIEAFSSAYCENQDYDPSKISDNAEDDISTVQPDADSVFILSYSIIMLNTDLHNPQVKEHMSFEDYSGNLKGCCNHKDFPFWYLDRIYCSIRDKEIVMPEEHHGNEKWFEDAWNNLISSTTVITEIKKDTQSVMDKLTPLELLNFDRAIFKQVGPSIVSTLFNIYVVASDDHISTRMITSLDKCSYISAFFDFKDLFNDILNSIAKGTTLINSSHDDELSTLAFEYGPMPLVQIKFEDTNTEIPVSTDAVRFGRSFKGQLNTVVFFRIIRRNKDPKIFSKELWLNIVNIILTLYEDLILSPDIFPDLQKRLKLSNLPKPSPEISINKSKESKGLLSTFASYLKGDEEPTEEEIKSSKKAMECIKSSNIAASVFGNESNITADLIKTLLDSAKTEKNADNSRYFEAELLFIIELTIALFLFCKEEKELGKFILQKVFQLSHTKGLTKRTVRRMLTYKILLISLCADQTEYLSKLINDELLKKGDIFTQKFFATNQGKEFLKRLFSLTESEFYRGFLLGNENFWKFLRKVTAMKEQSESIFEYLNESIKTDSNILTNENFMWVLGLLDEISSMGAVGNHWEIEYKKLTESGHKIDKENPYKKSIELSLKSIQLTSHLLEDNNDLRKNEIFAIIQALAHQCINPCKQISEFAVVTLEQTLINKIEIPTNEMESVEELIEGGLLPLLNSSETQEDQKILISSILTIISNVYLHYLKLGKTSNETFLKILSIFNKFVEDSDIEKKLQQLILDKKSIEKGNGSSSHGSAHEQTPESNDVEIEATAPIDDNTDDDNKPKLSDVEKD
Question: Which binding [2] does the source give for B2 here?
Answer: binds

B3: 3xHA tagged WT Arl1, P38116 1-183 (protein)
chain: MGNIFSSMFDKLWGSNKELRILILGLDGAGKTTILYRLQIGEVVTTKPTIGFNVETLSYKNLKLNVWDLGGQTSIRPYWRCYYADTAAVIFVVDSTDKDRMSTASKELHLMLQEEELQDAALLVFANKQDQPGALSASEVSKELNLVELKDRSWSIVASSAIKGEGITEGLDWLIDVIKEEQL
Question: With B3 as the binder, how does the binding [3] read?
Answer: binds

B4: 3xHA tagged Arl1 L69A (protein, UniProt P38116 1-183)
chain: MGNIFSSMFDKLWGSNKELRILILGLDGAGKTTILYRLQIGEVVTTKPTIGFNVETLSYKNLKLNVWDAGGQTSIRPYWRCYYADTAAVIFVVDSTDKDRMSTASKELHLMLQEEELQDAALLVFANKQDQPGALSASEVSKELNLVELKDRSWSIVASSAIKGEGITEGLDWLIDVIKEEQL
Question: Which binding [1] does the source give for B4 here?
Answer: binds

Source: article PMC10908827, “Structural insight into an Arl1–ArfGEF complex involved in Golgi recruitment of a GRIP-domain golgin” (Nature Communications, 2024)
